# The list shows a part of the results.
# Legend:
# Assay in all cases: protein microarray (ProtoArray v5.0), streptavidin-Alexa Fluor 647
# Settings in all cases: 3'-biotin; 20 mM Tris (pH 7.5), 5 mM MgCl2, 100 mM KCl, 0.1% Tween-20, A/T-rich and random oligonucleotide blockers; temperature not stated; high values mean tight binding
# COG8 (human) = system: COG8 (human)
# COMT (human) = system: COMT (human)
# COPZ1 (human) = system: COPZ1 (human)
# COX4I2 (human) = system: COX4I2 (human)
# COX4NB (human) = system: COX4NB (human)
# COX5B (human) = system: COX5B (human)
# CRABP2 (human) = system: CRABP2 (human)
# CRADD (human) = system: CRADD (human)
# CRLF3 (human) = system: CRLF3 (human)
# CRYAA (human) = system: CRYAA (human)
sequence,measurement,setting,value
GGGGACAGGGGTATGGGGAGGGG [G4-3 biotinylated (CtG)],binding signal,COG8 (human),-0.342 z-score
same,binding signal,COMT (human),-0.317 z-score
same,binding signal,COPZ1 (human),-0.335 z-score
same,binding signal,COX4I2 (human),-0.334 z-score
same,binding signal,COX4NB (human),-0.309 z-score
same,binding signal,COX5B (human),-0.33 z-score
same,binding signal,CRABP2 (human),-0.306 z-score
same,binding signal,CRADD (human),-0.336 z-score
same,binding signal,CRLF3 (human),-0.335 z-score
same,binding signal,CRYAA (human),-0.32 z-score

# An excerpt of these results, as tab-separated lines:
sequence	measurement	setting	value
GGGGACAGGGGTATGGGGAGGGG [G4-3 biotinylated (CtG)]	binding signal	CRABP2 (human)	-0.306 z-score
same	binding signal	CRADD (human)	-0.336 z-score
